PubChem BioAssay AID1159508 – Drosophila RNAi Screening Center – 2015

- Assay: 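Viability reference data for a dsRNA library against RNA-binding protein genes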
- System: Drosophila S2R+ cells
- Reagent: long dsRNA against Drosophila genes
- Timing: 5 days
- Measurement: 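Total ATP per well measured by luciferase luminescence after 5 days, expressed as z-scores for each replicate and as their average across up to three replicates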
- Reading the numbers: mean ATP z-score and ATP z-score: higher = more total ATP luminescence
- Call rule: In these data the active calls have mean ATP z-score at about -2 or lower, or at about 2 or higher
- Meaning of the calls: active = strong ATP change (up or down); inactive = no strong ATP change
Shown is one part, drawn at random, of 812 reagents tested. Of all reagents, 18 (2.2%) are marked active. 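Calls include both increased and decreased ATP; roughly one in four reagents has no third replicate value.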 The record does not give: the amount of reagent.

Gene | PubChem SID | mean ATP z-score | ATP z-score, replicate 1 | ATP z-score, replicate 2 | ATP z-score, replicate 3 | Call
CG3808 | SID104190169 | 0.923 | 0.313 | 1.06 | 1.22 | inactive
CG3808 | SID104212877 | 1.38 | 0.781 | 1.43 | 1.67 | inactive
Adat1 | SID104183271 | 0.463 | 0.388 | 0.479 | – | inactive
Adat1 | SID104205764 | -0.744 | -0.794 | -0.689 | -0.607 | inactive
CG34334 | SID104200435 | 0.343 | 0.12 | 0.143 | 0.698 | inactive
CG34334 | SID104216362 | -0.506 | -0.809 | -0.138 | – | inactive
Dis3 | SID104195826 | 0.0796 | 0.0482 | 0.0591 | 0.116 | inactive
Dis3 | SID251911328 | -0.06 | -0.242 | 0.13 | – | inactive
NHP2 | SID104191021 | 0.0775 | -0.488 | 0.0682 | 0.637 | inactive
NHP2 | SID104203108 | -1.04 | -1.33 | -1.14 | -0.447 | inactive
pum | SID104202734 | 0.755 | -0.0336 | 0.866 | 1.29 | inactive
pum | SID104213546 | 0.534 | 0.319 | 0.505 | 0.675 | inactive
mIF3 | SID104186082 | 0.643 | -0.0464 | 0.55 | 1.3 | inactive
mIF3 | SID251911365 | -0.0326 | -0.46 | 0.0599 | 0.308 | inactive
eIF2D | SID104193708 | 0.818 | 0.7 | 0.831 | – | inactive
eIF2D | SID251911402 | 0.349 | -0.379 | 0.0655 | 1.29 | inactive
Rbp6 | SID104189864 | -0.514 | -0.579 | -0.382 | – | inactive
Rbp6 | SID104189865 | -0.0701 | -0.631 | 0.183 | 0.251 | inactive
r2d2 | SID104182806 | 0.951 | 0.435 | 0.57 | 1.66 | inactive
r2d2 | SID104208106 | 0.99 | 0.585 | 1.27 | – | inactive
hrg | SID104209906 | -0.152 | -0.209 | -0.16 | -0.0581 | inactive
hrg | SID104215145 | 1.41 | 1.19 | 1.44 | – | inactive
Mat89Ba | SID104194332 | -0.41 | -0.39 | -0.378 | – | inactive
Mat89Ba | SID104207710 | -0.525 | -0.624 | -0.509 | -0.339 | inactive

Part of the list above, set out differently.
NHP2 [SID104203108]
- mean ATP z-score: -1.04
- ATP z-score, replicate 1: -1.33
- ATP z-score, replicate 2: -1.14
- ATP z-score, replicate 3: -0.447
- Call: inactive

pum [SID104202734]
- mean ATP z-score: 0.755
- ATP z-score, replicate 1: -0.0336
- ATP z-score, replicate 2: 0.866
- ATP z-score, replicate 3: 1.29
- Call: inactive

pum [SID104213546]
- mean ATP z-score: 0.534
- ATP z-score, replicate 1: 0.319
- ATP z-score, replicate 2: 0.505
- ATP z-score, replicate 3: 0.675
- Call: inactive
